Where a chain is given by its changes, count along the chain named. Numbers in names are those of the source. Results are given in words; binding and its absence hold for the method and conditions named. Each block holds one binder with its values, some of them ahead of it.
Experiments:
Test in all cases: SEC; gel filtration, 10/400 column packed with Tosoh HW-55S resin, 20 mM Tris-HCl, 200 mM NaCl, pH 8.0, 293 K; both purified
[1] = molecular target: OleP mutant E89Y (Streptomyces antibioticus) (UniProt Q59819)
[2] = molecular target: OleP mutant S240Y (Streptomyces antibioticus) (UniProt Q59819)
[3] = molecular target: OleP mutant G92W (Streptomyces antibioticus) (UniProt Q59819)

- binding [1]: no binding
B1: OleP mutant E89Y (enzyme, UniProt Q59819 1-407)
chain: MTDTHTGPTPADAVPAYPFSLPHALDLDPHYAELRRDEPVSRVRLPYGEGTAWLVTRMSDARIVLGDSRFSTAAATDPATPRMFPTPPYPDGVLAQDPPDHTRLRRLVGKAFTARRVEEMRPRVRSLVDSLLDDMVAHGSPADLVEFLAVPFPVAVICELLGVPLEDRDLFRTFSDAMLSSTRLTAAEIQRVQQDFMVYMDGLVAQRRDAPTEDLLGALALATDNDDHLTKGEIVNMGVSLLIAGHETSVNQITNLVHLLLTERKRYESLVADPALVPAAVEEMLRYTPLVSAGSFVRVATEDVELSTVTVRAGEPCVVHFASANRDEEVFDHADELDFHRERNPHIAFGHGAHHCIGAQLGRLELQEALSALVRRFPTLDLAEPVAGLKWKQGMLIRGLERQIVSW

- binding [2]: no binding
B2: OleP mutant S240Y (enzyme, UniProt Q59819 1-407)
chain: B1 chain with Y89E, S240Y

- binding [3]: no binding
B3: OleP mutant G92W (enzyme, UniProt Q59819 1-407)
chain: B1 chain with Y89E, G92W

Source: paper PMC8774231, “Point Mutations at a Key Site Alter the Cytochrome P450 OleP Structural Dynamics” (Biomolecules, 2021)
